This passage reports Inhibition results from ChEMBL document CHEMBL4513148, “CO-ADD screening of Stellenbosch University (South Africa) compounds”.

This is one part of the list. Potency and affinity values are given separately.

The test system of this assay is Acinetobacter baumannii. The note with it: Concentration 32 ug.mL-1; ASSAY_TEST Inhibition of Bacterial Growth; detection method Absorption (OD600); MEDIA CAMHB; plate type 384well; NBS; CORNING #3640; time 18 hr.
For `CCCCCCCNC(=O)CCNC(=O)C(O)C(C)(C)C` (stereo not drawn), the Inhibition amounted to 21.36%.

Take `CCCCCCCNC(=S)CCNC(=O)[C@H](O)C(C)(C)CO`: the Inhibition is 24.29%.

Turning to `CC(C)(CO)[C@H](O)C(=O)NCCC(=O)NCc1cn(C[C@H]2O[C@@H](n3ccc(N)nc3=O)[C@H](O)[C@@H]2O)nn1`, the Inhibition is recorded as 13.48%.

For `CC(CC(=O)NCCc1ccccc1)NC(=O)[C@H](O)C(C)(C)CO` (stereo partly drawn), the Inhibition is 11.11%.

The molecule `C#CCNC(=O)[C@H](O)C(C)(C)CO` displayed an Inhibition of 15.73%.

Molecule `CC(C)(C)C(O)C(=O)NCCC(=O)NCCc1ccccc1` (stereo not drawn) yielded an Inhibition of 11.61%.

In turn, `CC(C)(CO)[C@H](O)C(=O)NCCCc1cn(C[C@H]2O[C@@H](n3ccc(N)nc3=O)[C@H](O)[C@@H]2O)nn1` showed an Inhibition of 7.83%.

`CC(C)(COP(=O)(O)O)[C@@H](O)C(=O)NCCC(=O)NCCc1ccccc1` registered an Inhibition of 19.51%.

Turning to `CCCCCCCNS(=O)(=O)CCNC(=O)[C@H](O)C(C)(C)CO`, the Inhibition was found to be 20.89%.

`CCCCCCNNC(=O)CCNC(=O)[C@H](O)C(C)(C)CO` showed an Inhibition of 17.22%.

With `CC(C)(CO)[C@@H](O)C(=O)N/C=C/C(=O)NCCc1ccccc1`, the Inhibition was determined as 15.01%.

`CC(C)(CO)[C@H](O)C(=O)NCCC(=O)OCc1cn(C[C@H]2O[C@@H](n3ccc(N)nc3=O)[C@H](O)[C@@H]2O)nn1`: the Inhibition is listed as 13.94%.

On to `CC(C)(CO)[C@@H](O)C(=O)NCCC(=S)NCCc1ccccc1`, for which the Inhibition came out at 12.94%.

`CC(C)(CO)C(O)C(=O)NCCCOP(=O)(O)OCC1OC(n2ccc(N)nc2=O)C(O)C1O` (stereo not drawn) displayed an Inhibition of 12.12%.

On to `CC(C)(CO)[C@@H](O)C(=O)NCCC(=O)NNCc1ccccc1`, for which the Inhibition stood at 10.95%.

The molecule `CC(C)(CN)C(O)C(=O)NCCC(=O)NCCc1ccccc1` (stereo not drawn) returned an Inhibition of 20.01%.

Turning to `CC(C)(CO)[C@H](O)C(=O)NCCc1cn(C[C@H]2O[C@@H](n3ccc(N)nc3=O)[C@H](O)[C@@H]2O)nn1`, the Inhibition is 10.71%.

The molecule `CC(C)(CO)[C@H](O)C(=O)NCc1cn(C[C@H]2O[C@@H](n3ccc(N)nc3=O)[C@H](O)[C@@H]2O)nn1` came in with an Inhibition of 12.88%.

What is called Inhibition is the share of the control response that was lost under treatment.
